Reference: US8295924B2, “Transdermal systems for the delivery of ionic agents directly to open wounds and surgically repaired incisions” (Teikoku Pharma USA, Inc., priority 2006, dated 2012)

What was measured:
[1] = pad saturated with 4% lidocaine, 4 cm^2 delivery pad, current 0.12 mA (0-2 h), 0.33 mA (2-4 h), 0.54 mA (4-6 h); all current densities tested
[2] = iontophoresis through intact skin compared with topical delivery; cited from earlier work

## CCN(CC)CC(=O)Nc1c(C)cccc1C [lidocaine]
[1]
  Concentration of lidocaine generated in the incision: sufficient to cause anesthesia
[2]
  effectiveness as prophylactic treatment for skin anesthesia: more effective than topical delivery
